## Library screen at single concentrations

Data taken from ChEMBL document CHEMBL3988442, “University of Dundee, Small-Polar-MMV Screening Library” (2021).

Results are given as percent effect.
The record does not define 0% and 100%; most values in the screen are far below 50% and negative numbers occur (in some assays of this library far below -100).
This is an unselected part of the compounds tested.
Two or more numbers in one place are separate tests of the same structure; such repeats can differ widely.
A dash means the value is not listed here; it may have been measured.

T. brucei: 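Whole-parasite assay of Trypanosoma brucei over 72 hours; the read-out is not stated. Concentration: 30 µM. Higher reads as stronger inhibition (inferred: compounds with an IC50 in retests scored well above the rest). Values scatter widely below zero; nearly all retest evidence comes from the higher of the two concentrations used. Of about 64,000 compounds tested this way, about 940 (1.5%) reached 50% or more in at least one test.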
Leishmania in macrophages: 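Cell assay of Leishmania donovani living inside macrophages; the read-out is not stated. Concentration: 30 µM. Direction is inferred from retests: higher values go with stronger inhibition. Of about 69,000 compounds tested this way, about 1,000 (1.5%) reached 50% or more in at least one test.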
Toxoplasma: 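Assay of Toxoplasma gondii numbers, read through their beta-galactosidase reporter with a colour substrate. Concentration: 10 µM. Higher reads as fewer parasites (inferred from which compounds were picked for retests). Size under these conditions: about 67,000 compounds, about 260 of them at 50% or above in at least one test.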

SMILES	T. brucei	Leishmania in macrophages	Toxoplasma
O=C(NC1CCCCC1)N1CCn2c(nnc2C2CCCN2)C1 (stereo not given)	-	4.826%	-1.45%
CCC(C)NC(=O)c1ccc(-c2ccco2)[nH]c1=O (stereo not given)	-1.689%	-1.015%	-10.68%
Cc1cnn(CC2CCCN2C(=O)Cc2ccc(C)nc2)c1 (stereo not given)	3.236%	13.87%	5.422%
O=C(CCn1cc(Cl)cn1)N1CCN(CCOc2ccccc2)CC1	-4.547%	21.34%	-0.9815%
CCOc1nn(CC)cc1-c1nnc(SCC)n1C	-18.71%	-1.641%	7.265%
O=C(c1ccc(=O)[nH]c1)N1CCc2c(nc(-c3cccnc3)[nH]c2=O)C1	-7.057%	14.53%	-26.86%
CCOc1ncccc1NC(=O)c1cc(C)c(C)s1	63.47%	2.189%	-7.386%
CCc1nccn1CC1CCCN1S(=O)(=O)N1CCCOCC1 (stereo not given)	-41.34%	-30.33%	11.11%
COCCN(Cc1sccc1C)C(=O)COc1ccccc1O	-30.66%	-3.84%	-11.65%
O=C(O)C(F)(F)F.[H][C@]12CCN(CC(C)C)CC[C@@]1([H])S(=O)(=O)CCN2S(C)(=O)=O	-57.57%	6.108%	-16.69%
CCc1ncc2c(n1)CN(Cc1ncc(C(C)(C)C)o1)CC2	-50.07%	-24.31%	17.49%
Cc1nc(CN(C)S(=O)(=O)c2ccc(F)cc2Br)no1	-50.03%	7.66%	-24.18%
CN(C)c1ncc(-c2ccc(C(N)=O)cc2)c(C2CCNC2)n1.Cl (stereo not given)	3.717%	29.24%	4.174%
O=C(O)C(F)(F)F.[H][C@@]12CCN(c3cccc(F)c3)C[C@@]1([H])O[C@@H](C(=O)N1CCCCO1)C2	-0.6141%	18.09%	5.098%
Cc1cnn(CC(C)NCc2cc(C#N)ccc2F)c1 (stereo not given)	2.81%	0.9233%	10.86%
O=C(CCc1nccs1)N1CCN(c2ccccc2F)CC1	0.2522%	-10.46%	-
CC(C1CCN(Cc2ccc(OC(F)F)cc2)CC1)N1CCOCC1 (stereo not given)	-11.11%	57.26%	9.635%
Cc1nn(C)cc1-c1ccnc(N(C)Cc2noc(C(C)C)n2)n1	-21.43%	19.89%	-5.109%
Cc1cc2c(=O)n3c(nc2s1)CCN(C(=O)c1cnn(C)c1)CC3	12.96%	13.66%	-10.89%
CNC(=O)N(Cc1c(F)cccc1F)C1CCCC1	-4.642%	-5.314%	-3.593%
Cn1c2c(c(=O)n1C)CN(S(=O)(=O)c1cccs1)CCC2	-39.58%	0.911%	3.977%
COc1ccccc1OCC(=O)NS(=O)(=O)c1ccc(C)s1	0.04661%	20.19%	8.009%
Cc1cc(C)cc(CCC(=O)NC(C)c2nnn[nH]2)c1 (stereo not given)	-23.05%	10.05%	-25.98%
Cc1cc(F)ccc1OC1(C(=O)O)CCN(Cc2ccncc2)CC1	25.36%	18.22%	-3.524%
COC1CCN(C(=O)Nc2ccccc2)CC(=O)N(C)c2ccccc21 (stereo not given)	83.76%	-5.426%	-0.4343%
Cc1cc(N(C)C)nc(N2CCN(Cc3nccn3C)CC2)n1	-33.46%	9.13%	10.23%
COc1ccccc1OC1CN(C(=O)Cc2c(C)nc(C)[nH]c2=O)C1	-1.543%	27.4%	5.692%
Cc1ccc(-c2nc(CN3CCn4c(nnc4C4CC4)C3)co2)cc1	0.4807%	30.37%	20.1%
COc1c(C2CCCN2CC(=O)Nc2cc(C)no2)c(C)nn1C (stereo not given)	-0.5189%	4.217%	2.8%
COc1ccc(COCC(=O)N2CCCC(n3cncn3)C2)cc1 (stereo not given)	-44.72%	-7.522%	25.04%
CN(CCCc1cnn(C)c1)Cc1cc2n(n1)CCCNC2	-12.84%	3.244%	3.735%
Cn1ccc(CN2CC(Cc3nccc4cc[nH]c34)C2)n1	-12.21%	8.007%	-7.887%
Cn1cc(CN2CCCN(CCCc3ccccc3)CC2)cn1	-	27.1%	11.68%
O=C(Cc1ccc(Cl)s1)Nc1ccc2c(c1)C(=O)NC2=O	2.321%	36.1%	-13.03%
O=C(O)C(F)(F)F.[H][C@@]12CCN(c3cccnc3)C[C@]1([H])CN(C(=O)c1ccc(O)cc1)C2	-16.88%	31.09%	7.131%
Cn1nc(CNC(=O)CC#N)c2c1CN(C(N)=O)CC2	-	-17.61%	-7.025%
CNC(=O)[C@@H]1CN(C(=O)COC)C[C@H]1c1ccnc(N2CCCC2)n1	-4.31%	-2.802%	-26.46%
CCc1ccc2c(c1)C(CCNC(=O)Cc1ccc(F)cc1)C(=O)N2 (stereo not given)	-20.74%	3.903%	-5.688%
Cn1nc(N2CCCC(C(=O)Nc3nccs3)C2)ccc1=O (stereo not given)	-22.78%	-12.58%	-12.63%
CC(C)Cc1noc(CN2CCCC(Cn3cncn3)C2)n1 (stereo not given)	26.21%	17.7%	4.2%
CC(NC(=O)NCCCO)c1ccc(-c2ccncc2)cc1 (stereo not given)	-27.57%	22.31%	-1.983%
Cc1ccc2c(c1)C(=O)NCC1(CCN(C(=O)c3cnccn3)CC1)O2	9.234%	2.522%	-7.893%
CC(C)N(C(=O)Cn1nc2n(c1=O)CCCCC2)C1CCC1	-12.13%	16.02%	-2.454%
CCN(C)S(=O)(=O)NCC1CCN(Cc2ccccc2F)C1 (stereo not given)	2.361%	-17.2%	1.915%
CCNc1nc(N(C)C)nc(-n2cnc(SC)n2)n1	-20.54%	7.816%	6.362%
Cc1nc(CN2CCC(N3CCN(C)C3=O)CC2)no1	-	-15.97%	1.174%
CN(C)[C@@H]1CCN(C(=O)c2cccc(C#N)c2)[C@H]1Cc1cnn(C)c1.O=C(O)C(F)(F)F	-529%	12.83%	-2.712%
Cc1ccccc1C(C#N)NC(=O)CCCOc1cccnc1 (stereo not given)	2.997%	45.68%	-6.534%
Cc1cc(NC(=O)CNC(C)(C)c2ccccc2)on1	-18.33%	-1.854%	0.885%
CN1C(=O)CCc2cc(NC(=O)C3CCCC3)ccc21	-44.31%	-9.081% & -39.43%	6.306%
CCc1noc(CN2CCN(C(=O)N(CC)CC)CC2)n1	-	15.85%	-0.4922%
CC(C)c1nccc(C2(c3ccccc3Cl)CCNCC2)n1	-6.514%	86.79%	24.49%
CCc1ccc(C(=O)N2CCCC(c3noc(CC)n3)C2)o1 (stereo not given)	2.081%	15.99%	-1.004%
O=C([C@H]1CCCO1)N1CCC2(CCCN(CCOc3ccccc3)C2)C1 (stereo not given in full)	-77.11%	1.625%	13.61%
c1ccc(CCN2CC(n3cccn3)C2)nc1	-15.57%	11.47%	1.126%
Cc1nc(CN(C)C2CCCN(Cc3noc(C4CC4)n3)C2)oc1C (stereo not given)	-35.43%	-8.721%	10.73%
NCc1cccc(-c2cccnc2C(=O)NCCCN2CCOCC2)c1	-	-5.209%	-1.421%
COc1cccc(CCC2CCCN(C(=O)c3cnccn3)C2)c1 (stereo not given)	-27.82%	2.484%	5.01%
O=C(Cc1cccnc1)NC1COc2ccccc2C1=O (stereo not given)	-65.37%	-15.95%	-5.367%
OC1(CN2CCOC(Cn3cncn3)C2)CCCCC1 (stereo not given)	-37.69%	2.531%	-2.142%
O=C(NCc1ccccn1)NCc1ccc(Cl)s1	-	12.25%	3.306%
CCNC(=O)CCC(=O)NC1(c2cccc(C(F)(F)F)c2)CCC1	-7.407%	9.143%	6.892%
Clc1cnccc1N1CCCOCC1	-4.493%	-5.192%	4.6%
CN1CC(=O)N(c2ccccc2)CC12CCN(C(=O)c1ccnnc1)C2.O=C(O)C(F)(F)F (stereo not given)	-13.49%	-0.2995%	11.36%
COc1ccsc1C(=O)Nc1cc(Cl)c(=O)n(C)c1	-10.28%	16.33%	-13.94%
[H][C@@]12CCCN1C[C@@H](Cc1ccccc1)N(Cc1cnn(CCC)c1C)C2	-0.2314%	-4.364% & -7.989%	-28.63%
CC(C)(O)CCc1cccc(C(=O)N[C@@H](CO)C(N)=O)c1	-	10.63%	-24.22%
O=C1CCCc2occ(C(=O)N3CCCC(O)(CO)C3)c21 (stereo not given)	-84.34%	16.28%	-2.723%

Some entries from above, unchanged:

* CCN(C)S(=O)(=O)NCC1CCN(Cc2ccccc2F)C1 (stereo not given) | T. brucei: 2.361%; Leishmania in macrophages: -17.2%; Toxoplasma: 1.915%
* COCCN(Cc1sccc1C)C(=O)COc1ccccc1O | T. brucei: -30.66%; Leishmania in macrophages: -3.84%; Toxoplasma: -11.65%
* Cc1cc(NC(=O)CNC(C)(C)c2ccccc2)on1 | T. brucei: -18.33%; Leishmania in macrophages: -1.854%; Toxoplasma: 0.885%
* Cc1cc(N(C)C)nc(N2CCN(Cc3nccn3C)CC2)n1 | T. brucei: -33.46%; Leishmania in macrophages: 9.13%; Toxoplasma: 10.23%